Reference: patent EP4847498A1, “PRODRUG COMPOUND ACTIVATED BY FIBROBLAST ACTIVATION PROTEIN” (dated 2026)
The structures given here were assigned with low confidence; some may be wrong.

Amino acid sequences for entries named in this document (tags omitted). Residues count along the entry.
UniProt Q12884, whole entry: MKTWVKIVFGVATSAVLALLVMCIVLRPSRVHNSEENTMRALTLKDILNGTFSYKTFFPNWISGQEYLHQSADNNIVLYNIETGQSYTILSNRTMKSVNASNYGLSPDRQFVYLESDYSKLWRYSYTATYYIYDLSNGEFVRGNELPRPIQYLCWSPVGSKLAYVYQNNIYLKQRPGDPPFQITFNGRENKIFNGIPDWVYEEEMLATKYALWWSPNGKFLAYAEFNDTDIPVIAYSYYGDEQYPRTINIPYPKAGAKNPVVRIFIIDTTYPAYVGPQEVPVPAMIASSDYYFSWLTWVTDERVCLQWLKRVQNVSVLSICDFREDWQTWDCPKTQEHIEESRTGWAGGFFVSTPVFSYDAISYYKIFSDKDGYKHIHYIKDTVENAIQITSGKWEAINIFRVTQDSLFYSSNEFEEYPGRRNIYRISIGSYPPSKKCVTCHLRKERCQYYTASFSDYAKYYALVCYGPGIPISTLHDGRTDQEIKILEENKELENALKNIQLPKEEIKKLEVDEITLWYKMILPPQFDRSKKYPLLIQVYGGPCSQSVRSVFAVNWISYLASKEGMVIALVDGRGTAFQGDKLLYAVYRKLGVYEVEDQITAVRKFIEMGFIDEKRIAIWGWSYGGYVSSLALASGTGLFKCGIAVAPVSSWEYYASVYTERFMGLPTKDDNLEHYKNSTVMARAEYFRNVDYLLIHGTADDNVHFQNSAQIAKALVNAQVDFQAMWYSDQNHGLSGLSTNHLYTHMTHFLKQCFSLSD
UniProt P11362, 22-822 limits assumed: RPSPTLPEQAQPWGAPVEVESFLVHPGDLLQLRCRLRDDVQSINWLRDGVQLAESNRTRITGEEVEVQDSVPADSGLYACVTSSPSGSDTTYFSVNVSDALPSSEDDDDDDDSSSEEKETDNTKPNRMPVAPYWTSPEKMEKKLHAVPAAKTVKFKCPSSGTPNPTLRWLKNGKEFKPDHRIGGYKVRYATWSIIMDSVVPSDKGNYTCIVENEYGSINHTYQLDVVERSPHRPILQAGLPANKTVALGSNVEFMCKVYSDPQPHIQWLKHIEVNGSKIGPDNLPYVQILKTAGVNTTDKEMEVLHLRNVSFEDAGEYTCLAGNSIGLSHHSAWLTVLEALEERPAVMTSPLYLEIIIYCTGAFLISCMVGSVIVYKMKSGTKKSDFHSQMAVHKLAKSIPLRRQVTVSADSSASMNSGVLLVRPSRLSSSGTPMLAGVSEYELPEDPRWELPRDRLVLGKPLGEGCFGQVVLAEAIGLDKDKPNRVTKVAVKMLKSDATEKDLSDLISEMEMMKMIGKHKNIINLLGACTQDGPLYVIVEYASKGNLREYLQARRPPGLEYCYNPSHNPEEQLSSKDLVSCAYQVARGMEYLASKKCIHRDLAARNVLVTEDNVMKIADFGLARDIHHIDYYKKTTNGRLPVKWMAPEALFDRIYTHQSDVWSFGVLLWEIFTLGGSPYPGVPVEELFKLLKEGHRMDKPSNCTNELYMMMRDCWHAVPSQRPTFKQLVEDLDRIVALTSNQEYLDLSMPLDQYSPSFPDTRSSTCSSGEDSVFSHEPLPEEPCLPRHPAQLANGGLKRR
UniProt P17948, 27-1338 limits assumed: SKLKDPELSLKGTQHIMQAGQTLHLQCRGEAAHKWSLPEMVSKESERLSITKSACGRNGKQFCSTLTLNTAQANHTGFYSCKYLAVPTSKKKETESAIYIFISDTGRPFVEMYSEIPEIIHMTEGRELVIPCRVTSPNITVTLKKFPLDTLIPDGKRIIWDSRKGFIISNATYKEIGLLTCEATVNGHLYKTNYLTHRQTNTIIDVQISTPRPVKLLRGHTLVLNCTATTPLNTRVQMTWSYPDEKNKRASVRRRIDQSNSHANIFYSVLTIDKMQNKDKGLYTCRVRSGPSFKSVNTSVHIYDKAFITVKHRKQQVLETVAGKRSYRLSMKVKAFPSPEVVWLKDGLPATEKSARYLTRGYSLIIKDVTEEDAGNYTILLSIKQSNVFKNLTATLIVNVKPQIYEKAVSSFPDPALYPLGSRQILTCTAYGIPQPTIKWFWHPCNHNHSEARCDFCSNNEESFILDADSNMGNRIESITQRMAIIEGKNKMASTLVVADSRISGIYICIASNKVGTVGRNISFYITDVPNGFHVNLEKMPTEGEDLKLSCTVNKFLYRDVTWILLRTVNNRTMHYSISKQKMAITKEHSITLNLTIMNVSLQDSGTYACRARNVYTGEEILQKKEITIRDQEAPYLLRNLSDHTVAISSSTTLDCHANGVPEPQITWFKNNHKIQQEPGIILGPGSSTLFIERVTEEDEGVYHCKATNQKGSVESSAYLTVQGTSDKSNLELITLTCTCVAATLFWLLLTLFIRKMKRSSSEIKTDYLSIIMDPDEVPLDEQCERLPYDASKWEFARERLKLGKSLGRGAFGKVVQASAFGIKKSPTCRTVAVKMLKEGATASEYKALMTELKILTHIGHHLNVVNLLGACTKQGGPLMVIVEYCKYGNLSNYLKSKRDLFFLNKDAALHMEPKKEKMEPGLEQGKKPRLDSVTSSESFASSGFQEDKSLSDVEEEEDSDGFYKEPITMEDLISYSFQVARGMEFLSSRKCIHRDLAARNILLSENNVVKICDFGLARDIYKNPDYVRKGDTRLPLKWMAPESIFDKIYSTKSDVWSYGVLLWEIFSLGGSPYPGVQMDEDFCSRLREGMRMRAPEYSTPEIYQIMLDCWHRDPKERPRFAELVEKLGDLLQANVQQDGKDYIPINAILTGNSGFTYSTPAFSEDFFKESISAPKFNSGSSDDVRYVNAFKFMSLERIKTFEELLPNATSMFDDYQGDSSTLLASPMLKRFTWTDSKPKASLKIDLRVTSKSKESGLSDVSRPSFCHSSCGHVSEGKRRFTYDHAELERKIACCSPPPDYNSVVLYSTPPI
UniProt P16234, 24-1089 limits assumed: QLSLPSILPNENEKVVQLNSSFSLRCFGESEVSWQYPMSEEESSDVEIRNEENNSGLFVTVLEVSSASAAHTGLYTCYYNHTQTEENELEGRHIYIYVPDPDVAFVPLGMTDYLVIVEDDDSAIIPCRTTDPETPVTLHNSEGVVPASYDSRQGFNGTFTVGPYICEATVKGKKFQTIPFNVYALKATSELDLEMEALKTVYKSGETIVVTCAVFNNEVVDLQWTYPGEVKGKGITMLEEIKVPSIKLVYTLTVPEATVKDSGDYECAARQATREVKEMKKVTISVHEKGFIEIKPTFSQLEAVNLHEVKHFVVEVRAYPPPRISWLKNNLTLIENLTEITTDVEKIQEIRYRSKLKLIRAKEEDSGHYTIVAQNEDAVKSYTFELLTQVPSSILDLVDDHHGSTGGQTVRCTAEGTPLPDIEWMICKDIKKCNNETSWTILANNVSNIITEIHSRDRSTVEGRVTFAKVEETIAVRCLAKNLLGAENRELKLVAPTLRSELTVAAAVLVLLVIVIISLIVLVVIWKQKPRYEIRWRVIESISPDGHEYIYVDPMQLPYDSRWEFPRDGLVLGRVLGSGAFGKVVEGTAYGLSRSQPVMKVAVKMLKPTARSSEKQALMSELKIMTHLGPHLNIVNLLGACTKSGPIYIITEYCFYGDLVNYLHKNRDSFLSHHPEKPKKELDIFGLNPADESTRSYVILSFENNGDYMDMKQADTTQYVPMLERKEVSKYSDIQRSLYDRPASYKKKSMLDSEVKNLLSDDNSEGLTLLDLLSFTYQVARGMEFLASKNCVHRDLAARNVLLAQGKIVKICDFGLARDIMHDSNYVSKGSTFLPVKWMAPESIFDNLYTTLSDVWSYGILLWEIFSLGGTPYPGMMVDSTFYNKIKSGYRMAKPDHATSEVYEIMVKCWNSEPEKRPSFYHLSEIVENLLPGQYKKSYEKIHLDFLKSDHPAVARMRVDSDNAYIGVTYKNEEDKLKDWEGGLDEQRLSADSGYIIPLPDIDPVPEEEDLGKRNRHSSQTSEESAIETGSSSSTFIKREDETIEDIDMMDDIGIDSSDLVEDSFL

Columns and labels:
FAP = FAP (Homo sapiens, UniProt Q12884); assay: Degradation of FAAP by FAP and release of nintedanib, HPLC and LC/MS; conditions: 100 µM FAAP, 4.45 µg/mL FAP; for FAAP degraded: pH 7.4, 37°C
Experimental: (§1) To evaluate the degree to which FAAP synthesized in Example 1 above is activated by FAP, 100 µM of FAAP and 4.45 µg/mL of FAP were incubated in a buffer (0.01 M Tris-HCl, pH 7.4, 0.01 M MgCl2, 0.05% Tween-20, distilled water) and <2.5% (v/v) of DMSO at 37°C. Subsequently, samples were collected at different time points, and whether nintenanib would be released by degradation of FAAP was analyzed by HPLC and LC/MS using the instrument's mass detector and UV detector (390 nm). The results are shown in FIGS. 4a and 4b and FIGS. 5a to 5c. Here, the conditions for analysis using the HPLC and LC-MS systems (Agilent) are as follows: • Analysis column: X Terra MS C18 column, 25 Å, 3.5 µm, 2.1 mm x 100 mm; • HPLC and LC-MS conditions: 0-2 min, 20% A/B; 2-15 min, 20-90% A/B; 15-20 min, 90% A/B; 0.25 ml/min flow rate; • As elution buffer, acetonitrile (solvent A) and water (solvent B) are mixed with 0.1% formic acid (v/v).

[1] = Stability of FAAP in buffer in the absence of FAP, HPLC and LC/MS; conditions: buffer pH 7.4, 37°C, without FAP
Experimental: as §1

FGFR1 = FGFR1 (Homo sapiens, UniProt P11362); assay: Competitive binding assay with DNA-tagged kinase and immobilized ligand, qPCR readout, FGFR1
Experimental: (§2) This experiment was conducted based on a competitive binding assay for quantitatively measuring the ability of the compound to compete with an immobilized, active site-directed ligand. This assay was performed by combining three components: a DNA-tagged kinase, a ligand immobilized on a bead, and the test compound. If the test compound binds to the kinase and directly or indirectly blocks the ATP site, the number of protein molecules (kinase) that bind to the ligand immobilized on the bead is reduced. […] Therefore, the degree of binding is evaluated based on the amount of fusion protein, bound to the bead, through quantitative PCR (qPCR). Kinase, liganded beads, and test compounds (nintedanib and FAAP were each diluted three-fold to the highest concentration of 10 mM and tested at a total of 11 points) were placed in a test plate and incubated with stirring at room temperature for 1 hour. Thereafter, the beads were resuspended in elution buffer (1x PBS, 0.05% Tween 20, 0.5 µM non-biotinylated affinity ligand) and then incubated with stirring at room temperature for 30 minutes, and the kinase concentration in the eluate was measured by qPCR.

FLT1 = FLT1 (Homo sapiens, UniProt P17948); assay: Competitive binding assay with DNA-tagged kinase and immobilized ligand, qPCR readout, FLT1
Experimental: as §2

PDGFRα = PDGFRα (Homo sapiens, UniProt P16234); assay: Competitive binding assay with DNA-tagged kinase and immobilized ligand, qPCR readout, PDGFRα
Experimental: as §2

U87MG cells = assay: FAAP activation by intracellular FAP, confocal microscopy of intrinsic nintedanib fluorescence
Experimental: To evaluate whether FAAP is activated by FAP at the cellular level, a normal group with FAP and a group in which FAP was blocked using oncoFAP were treated with each of nintedanib and FAAP, and the uptake pattern was observed using a confocal microscope. Specifically, cells were seeded into confocal dishes at a density of 2 x 10^5 cells/mL per well, incubated for 24 hours, and then subjected to drug treatment. For drug treatment, the normal group with FAP was treated with 2 µL (10 µM) of each of FAAP and nintedanib. The group in which FAP was blocked was first treated with 10 µL (1 mM) of oncoFAP, shaken from side to side, incubated for 30 minutes, and then treated with 2 µL (10 µM) of FAAP. After drug treatment, shaking was performed using a shaker at 165 rpm for 5 minutes. After incubation in an incubator for 15 minutes, 2 hours, 6 hours, and 10 hours, the cells were washed twice with warm DPBS. The cells were incubated with 1 ml of warm 4% PFA for 15 minutes, washed twice, then fixed by filling with DPBS to keep them from drying out, and then confocal images were taken. Nintedanib drug images were obtained using a Hoechst 33258 filter.

COC(=O)c1ccc2c(c1)N(Cc1ccc(NC(=O)[C@@H]3CCCN3C(=O)[C@@H](C)NC(=O)c3ccncc3)cc1)C(=O)/C2=C(\Nc1ccc(N(C)C(=O)CN2CCN(C)CC2)cc1)c1ccccc1
FAAP degradation into nintedanib (FAP; at a subsequent time point (after 5 hours), 37°C): completely degraded into nintedanib | FAAP degraded (FAP; within 1.5 hours): 40% | FAAP degraded (FAP; within 5 hours): 80% | stability in the absence of FAP [1]: remained very stable for a long period | Binding affinity of FAAP compared to nintedanib (FGFR1): 0.8-fold | Binding affinity of FAAP compared to nintedanib (FLT1): 0.2-fold | Binding affinity of FAAP compared to nintedanib (PDGFRα): 0.47-fold | time after treatment until which no fluorescence was shown, then fluorescence intensity increased (U87MG cells; normal group with FAP, 10 µM): 10 h | fluorescence after blocking FAP with the FAP inhibitor OncoFAP (U87MG cells; pretreated with OncoFAP (1 mM) for 30 minutes, then 10 µM FAAP, after 10 hours): no fluorescence appeared
